## Cleaved PARP in drug-treated melanoma cells

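Human melanoma cells were exposed to two drugs together for 72 h in 1,536-well plates and read by automated microscopy after fixing and staining. Values are the share of nuclei positive for cleaved PARP as a percentage of the same share in the DMSO control: 100 is the control level, higher means more apoptosis. Concentrations were fixed for each drug; these are the higher of two levels. No replicate spread is given; individual values may be noisy. Basal and induced levels differ widely between cell lines.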
This is part of the screen, not chosen by result.

Drug key:
GW441756, 2000 nM: Cn1cc(/C=C2\C(=O)Nc3cccnc32)c2ccccc21
erlotinib, 4000 nM: C#Cc1cccc(Nc2ncnc3cc(OCCOC)c(OCCOC)cc23)c1
temozolomide, 10000 nM: Cn1nnc2c(C(N)=O)ncn2c1=O
lestaurtinib, 20 nM: C[C@]12O[C@H](C[C@]1(O)CO)n1c3ccccc3c3c4c(c5c6ccccc6n2c5c31)CNC4=O
KU-55933, 5000 nM: O=c1cc(-c2cccc3c2Sc2ccccc2S3)oc(N2CCOCC2)c1
AZD7762, 100 nM: NC(=O)Nc1cc(-c2cccc(F)c2)sc1C(=O)N[C@H]1CCCNC1
STA-4783, 30 nM: CN(NC(=O)CC(=O)NN(C)C(=S)c1ccccc1)C(=S)c1ccccc1
CHIR-265, 400 nM: Cn1c(Nc2ccc(C(F)(F)F)cc2)nc2cc(Oc3ccnc(-c4ncc(C(F)(F)F)[nH]4)c3)ccc21
bortezomib, 5 nM: CC(C)C[C@H](NC(=O)[C@H](Cc1ccccc1)NC(=O)c1cnccn1)B(O)O

- erlotinib + AZD7762 | SK-MEL-5: 190; RVH-421: 59.7
- erlotinib + CHIR-265 | SK-MEL-5: 857; RVH-421: 237
- temozolomide + bortezomib | SK-MEL-5: 1060; RVH-421: 1650
- GW441756 + bortezomib | SK-MEL-5: 633; RVH-421: 291
- erlotinib + temozolomide | SK-MEL-5: 259; RVH-421: 184
- CHIR-265 + lestaurtinib | SK-MEL-5: 366; RVH-421: 105
- GW441756 + erlotinib | SK-MEL-5: 62.3; RVH-421: 87.9
- KU-55933 + AZD7762 | SK-MEL-5: 168; RVH-421: 97.4
- CHIR-265 + AZD7762 | SK-MEL-5: 2240; RVH-421: 58.8
- GW441756 + KU-55933 | SK-MEL-5: 91.9; RVH-421: 41.5
- KU-55933 + erlotinib | SK-MEL-5: 262; RVH-421: 76.1
- STA-4783 + AZD7762 | SK-MEL-5: 63.5; RVH-421: 242
- KU-55933 + bortezomib | SK-MEL-5: 3120; RVH-421: 1910
- temozolomide + lestaurtinib | SK-MEL-5: 493; RVH-421: 114
- bortezomib + STA-4783 | SK-MEL-5: 4340; RVH-421: 6700
- bortezomib + erlotinib | SK-MEL-5: 2900; RVH-421: 2640
- AZD7762 + bortezomib | SK-MEL-5: 1060; RVH-421: 1010
- temozolomide + CHIR-265 | SK-MEL-5: 1420; RVH-421: 109
- lestaurtinib + AZD7762 | SK-MEL-5: 225; RVH-421: 37.4
- temozolomide + KU-55933 | SK-MEL-5: 129; RVH-421: 108
- GW441756 + temozolomide | SK-MEL-5: 311; RVH-421: 53.3
- STA-4783 + GW441756 | SK-MEL-5: 47.1; RVH-421: 155
- erlotinib + lestaurtinib | SK-MEL-5: 1520; RVH-421: 169
- bortezomib + lestaurtinib | SK-MEL-5: 400; RVH-421: 523
- GW441756 + AZD7762 | SK-MEL-5: 131; RVH-421: 99.9
- KU-55933 + STA-4783 | SK-MEL-5: 465; RVH-421: 167
- CHIR-265 + GW441756 | SK-MEL-5: 1480; RVH-421: 167
- CHIR-265 + STA-4783 | SK-MEL-5: 1180; RVH-421: 101
- lestaurtinib + KU-55933 | SK-MEL-5: 157; RVH-421: 225
- erlotinib + STA-4783 | SK-MEL-5: 135; RVH-421: 142
- lestaurtinib + GW441756 | SK-MEL-5: 147; RVH-421: 45.4
- KU-55933 + CHIR-265 | SK-MEL-5: 897; RVH-421: 529

Values as published with doi:10.1371/journal.pone.0140310, rounded.